PubChem BioAssay AID504764, Drosophila RNAi Screening Center | 2011
Screen: 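Genes whose knock-down alters Notch-dependent transcription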 (primary screen). System: Drosophila Kc167 cells. Reagents: long dsRNA against Drosophila genes. Time to read-out: about 5 days (4 days dsRNA, then 24 h after transfection). Challenge: transfection of constitutively active membrane-tethered Notch lacking the extracellular domain, read 24 h later. Detection: 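Firefly luciferase from an E(spl)m3 reporter with active Notch, plus control-promoter and uninduced reporter wells for normalisation; unnormalised counts, duplicate wells a and b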. Direction: induced reporter light, run 1, well a and induced reporter light, run 1, well b: higher = more light from the Notch target reporter with active Notch; control promoter light, run 1, well a and control promoter light, run 1, well b: higher = more light from the viral control promoter (cell number, transfection, viability); uninduced reporter light, run 1, well a: higher = more light from the Notch target reporter without active Notch. Active means: 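Wells with low control signal or poorly matching duplicates excluded; duplicates averaged; per source plate, z beyond ±2 for induced/control log2 ratio or beyond ±1.8 for induced/uninduced marks a hit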. Meaning of the calls: active = modifier hit (raised or lowered Notch signal); inactive = not a hit.
The screen tested about 22,000 reagents; this is a random part of those that have a named target and a result. Over the whole deposit, 403 (1.9%) were called active. 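Unnormalised raw counts per well; ratio z-scores behind the hit calls and whether each hit raises or lowers signal are not deposited.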 Names joined by + are all predicted targets of the reagent. No sequences are given here. Not given: the amount of reagent.

CG4229 [DRSC10407] | induced reporter light, run 1, well a: 1.36e5; induced reporter light, run 1, well b: 1.63e5; control promoter light, run 1, well a: 97770; control promoter light, run 1, well b: 1.31e5; uninduced reporter light, run 1, well a: 10500; call: inactive
Shal [DRSC09625] | induced reporter light, run 1, well a: 2.41e5; induced reporter light, run 1, well b: 2.46e5; control promoter light, run 1, well a: 3.15e5; control promoter light, run 1, well b: 2.61e5; uninduced reporter light, run 1, well a: 19325; call: inactive
Shal [DRSC11283] | induced reporter light, run 1, well a: 2.23e5; induced reporter light, run 1, well b: 1.59e5; control promoter light, run 1, well a: 1.25e5; control promoter light, run 1, well b: 1.11e5; uninduced reporter light, run 1, well a: 11875; call: inactive
PolA2 [DRSC16641] | induced reporter light, run 1, well a: 1.49e5; induced reporter light, run 1, well b: 1.27e5; control promoter light, run 1, well a: 2.05e5; control promoter light, run 1, well b: 1.62e5; uninduced reporter light, run 1, well a: 13310; call: inactive

2 entries already listed, arranged by “control promoter light, run 1, well b”, lowest first.
Shal [DRSC11283] | induced reporter light, run 1, well a: 2.23e5; induced reporter light, run 1, well b: 1.59e5; control promoter light, run 1, well a: 1.25e5; control promoter light, run 1, well b: 1.11e5; uninduced reporter light, run 1, well a: 11875; call: inactive
PolA2 [DRSC16641] | induced reporter light, run 1, well a: 1.49e5; induced reporter light, run 1, well b: 1.27e5; control promoter light, run 1, well a: 2.05e5; control promoter light, run 1, well b: 1.62e5; uninduced reporter light, run 1, well a: 13310; call: inactive

Continued.
CG9302 [DRSC03191] | induced reporter light, run 1, well a: 2.27e5; induced reporter light, run 1, well b: 2.31e5; control promoter light, run 1, well a: 3.56e5; control promoter light, run 1, well b: 3.89e5; uninduced reporter light, run 1, well a: 14130; call: inactive
Alp12 [DRSC02515] | induced reporter light, run 1, well a: 50760; induced reporter light, run 1, well b: 55990; control promoter light, run 1, well a: 62200; control promoter light, run 1, well b: 42175; uninduced reporter light, run 1, well a: 2255; call: inactive
CG14007 [DRSC02339] | induced reporter light, run 1, well a: 1.51e5; induced reporter light, run 1, well b: 1.20e5; control promoter light, run 1, well a: 1.48e5; control promoter light, run 1, well b: 1.40e5; uninduced reporter light, run 1, well a: 11105; call: inactive
Iswi [DRSC07446] | induced reporter light, run 1, well a: 1.02e5; induced reporter light, run 1, well b: 78430; control promoter light, run 1, well a: 1.40e5; control promoter light, run 1, well b: 99140; uninduced reporter light, run 1, well a: 7530; call: inactive
VhaAC39-1 [DRSC18242] | induced reporter light, run 1, well a: 1.55e5; induced reporter light, run 1, well b: 1.69e5; control promoter light, run 1, well a: 1.95e5; control promoter light, run 1, well b: 1.82e5; uninduced reporter light, run 1, well a: 12155; call: inactive
CG13594 [DRSC04229] | induced reporter light, run 1, well a: 1.12e5; induced reporter light, run 1, well b: 1.06e5; control promoter light, run 1, well a: 87790; control promoter light, run 1, well b: 79880; uninduced reporter light, run 1, well a: 9600; call: inactive
CG11413 + CG4622 [DRSC04109] | induced reporter light, run 1, well a: 1.43e5; induced reporter light, run 1, well b: 1.37e5; control promoter light, run 1, well a: 1.92e5; control promoter light, run 1, well b: 1.68e5; uninduced reporter light, run 1, well a: 10645; call: inactive
mesh [DRSC14472] | induced reporter light, run 1, well a: 1.76e5; induced reporter light, run 1, well b: 1.59e5; control promoter light, run 1, well a: 2.73e5; control promoter light, run 1, well b: 2.52e5; uninduced reporter light, run 1, well a: 12800; call: inactive
mesh [DRSC15098] | induced reporter light, run 1, well a: 1.31e5; induced reporter light, run 1, well b: 1.59e5; control promoter light, run 1, well a: 2.06e5; control promoter light, run 1, well b: 1.71e5; uninduced reporter light, run 1, well a: 12160; call: inactive
mesh [DRSC15099] | induced reporter light, run 1, well a: 1.02e5; induced reporter light, run 1, well b: 1.05e5; control promoter light, run 1, well a: 1.51e5; control promoter light, run 1, well b: 1.47e5; uninduced reporter light, run 1, well a: 9520; call: inactive
